Data from publication PMC8265641, “Enterococcal PrgU Provides Additional Regulation of Pheromone-Inducible Conjugative Plasmids”.
For at least one entry, the source does not settle the construct or the ends of the probe.

Assays:
[1] = target: PrgU-His (Enterococcus faecalis plasmid pCF10) (UniProt Q5G3Q2); test: EMSA; conditions: 0-13 uM PrgU, 100 nM DNA, EMSA: 20 min at ~25 C, 1% agarose run at 4 C, buffer as previously described (not given), protein details: C-terminal 10xHis with 3C protease site, probe letters rebuilt from the primers and the genome
[2] = target: PrgU-His (Enterococcus faecalis plasmid pCF10) (UniProt Q5G3Q2); test: MST; conditions: bound equally well as IGR RNA, 50 nM PrgU, RNA up to 40 uM; MST: 20 mM KPi pH 7.0, 150 mM NaCl, 0.05% Tween 20, 0.1 U/ul RNase inhibitor, ~25 C; recombinant protein; protein details: C-terminal 10xHis with 3C protease site; probe letters rebuilt from the primers and the genome

“AATATCGAATTCTAATACGACTCACTATAGGGCATGTCAATGAATGAAGCAGATTTTAAACTCATCCTTTCTCAATTTCTTTTAAAAGATGAGACAAGCGAAAACCCAAAACTTCACCCTCAAAAAATTGAAAAAAGAAAAGCTCCAATCCAAAATAGTCTGGAGAATTATATTACTGAACTCATAAACAATGAAGTTGAGATTGACCTTTCAGATTACAAAGCAGCACTCAAACAATTAAAGAAAATGAAAGCTGCGGAATACGACGAGTTGGTCATGGAAATTGTCGAAGATTATGAACTTTTGACTGAAAAAAAGAATAAAGTATTCCCTTCAGGCAGTACCCCTTATCCTGAACAAATCATGAACCGAACAGTAAAAGAAATTACAGCAGAGATTCAAGTAACTTCTTCAGATGACCTCAATAAACGAGAGCGCAAAGAACAAAAAGCAAAAAGTTTGTTGGCTGATTTTTCTTGGTTACAAGGAAAAAGAAAAAATCGCAAGTAGAAGCTTTGGCCC (double strand) [control dsDNA]”: binds ([1]; affinity similar to IGR dsDNA, recombinant protein).
“GGGCAUGUCAAUGAAUGAAGCAGAUUUUAAACUCAUCCUUUCUCAAUUUCUUUUAAAAGAUGAGACAAGCGAAAACCCAAAACUUCACCCUCAAAAAAUUGAAAAAAGAAAAGCUCCAAUCCAAAAUAGUCUGGAGAAUUAUAUUACUGAACUCAUAAACAAUGAAGUUGAGAUUGACCUUUCAGAUUACAAAGCAGCACUCAAACAAUUAAAGAAAAUGAAAGCUGCGGAAUACGACGAGUUGGUCAUGGAAAUUGUCGAAGAUUAUGAACUUUUGACUGAAAAAAAGAAUAAAGUAUUCCCUUCAGGCAGUACCCCUUAUCCUGAACAAAUCAUGAACCGAACAGUAAAAGAAAUUACAGCAGAGAUUCAAGUAACUUCUUCAGAUGACCUCAAUAAACGAGAGCGCAAAGAACAAAAAGCAAAAAGUUUGUUGGCUGAUUUUUCUUGGUUACAAGGAAAAAGAAAAAAUCGCAAGUAGAAGCUUUGGCCC [control RNA (same length as IGR)]”: binds [2].
“GGGCCAAAGCTTTGATTCACCTACTTTCTGAACCAAGTAGAAAAAGAGCCATGCAACACGTTGTTTGCACGGCTCTTACGAGTAGTTCCAGTACAAACAATGCGTGAAAGCATTGAATTATTCCACAAGCGGGTCATTTTTAGAAAATGAGCGTGCTTGTTACTTGGTTTTTTTATTTTTTCAACAAGTTAACAGACAACAAAAAAAGCGGGGAACATATACATGAACTGTATACATTCCCCGCTGCTCCAACATTTATACAACTAATAAAAACAATTCACTGTAAAAACTTTTCCTAGACAAATAAAGGAGTTTAAAAAAGTCTAGAATTTTACATAAAAAATTGTTATACTATACGTTGTAACTAATGTTGCAACAAACGAGAACCGAGTAGAGTTCATGTCATACCATGAATTGTTTAACTGCCCCCTAGGATTGCCGTCCTATGGCAGTCGGTTCTTAATTTGTTTAATTGTTACTATGATTTTTTCTAGCCCTATAGTGAGTCGTATTAGAATTCGATAGC (double strand) [IGR dsDNA]”: binds ([1]; low-micromolar affinity, recombinant …).
